Values from PubChem BioAssay AID504786 (Drosophila RNAi Screening Center, 2011)

Aim: 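Knock-downs reducing HIF reporter induction by the iron chelator DFO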 (primary screen)
System: Drosophila S2 cells with a stable HIF luciferase reporter
Reagents: long dsRNA against Drosophila genes, about 0.2 µg dsRNA per well of a 384-well plate
Duration: three days of knock-down, then 20 h of DFO before reading
Conditions: desferrioxamine (DFO) at 100 µM, an iron chelator that mimics hypoxia, for 20 h
Measurement: 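HIF reporter luminescence in cells given 100 µM DFO for 20 h, using the mouse ldh-a hypoxia-response element, scored as per-plate z-scores; higher means greater loss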
Reading the numbers: z-score: higher = stronger loss of HIF reporter signal
In all, the deposit lists about 21,000 reagents; this is a random part of those with a known target gene and a result. 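Primary screen; positive scores mean lost reporter signal, so the sign may be inverted from the usual convention.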 The numbers tell different reagents against one gene apart. Not all columns of the deposit are shown.

Lst — z-score, replicate 1 = -0.2
caup — z-score, replicate 1 = 0.8
CG15025 — z-score, replicate 1 = -0.5
CG32219 — z-score, replicate 1 = -0.5
Arc1 — z-score, replicate 1 = -0.3
CG14985 #1 — z-score, replicate 1 = -0.2
CG14985 #2 — z-score, replicate 1 = -0.4
lush — z-score, replicate 1 = -0.3
CG10280 — z-score, replicate 1 = -0.1
Amy-p — z-score, replicate 1 = -0.2
Targ — z-score, replicate 1 = -0.2
beta-PheRS — z-score, replicate 1 = 0.3
Trf4-1 — z-score, replicate 1 = -0.2
BckdhA — z-score, replicate 1 = -0.3
Ccp84Ad — z-score, replicate 1 = 0.1
CG14151 — z-score, replicate 1 = -0.2
Gasp — z-score, replicate 1 = -0.4
kug — z-score, replicate 1 = -0.3
CG4230 — z-score, replicate 1 = -0.4
Ance-5 — z-score, replicate 1 = -0.4
CG15082 — z-score, replicate 1 = 0
tkv #1 — z-score, replicate 1 = 0.1
tkv #2 — z-score, replicate 1 = -0.2
Arp6 — z-score, replicate 1 = 0
ND-B14 — z-score, replicate 1 = 0.3
Osi14 — z-score, replicate 1 = 0.3
bowl — z-score, replicate 1 = -0.3

Look-ups from above.
Value for Lst in “z-score, replicate 1”: -0.2
Result for tkv #2 under “z-score, replicate 1”: -0.2
